Data taken from publication PMC12203907.
Where two headings read alike, the source gives them in different places. Results are given in words; binding and its absence hold for the method and conditions named. Some binding calls cover weakened binding; strength is not graded here.

T1: Ply2638A full-length endolysin isoform (PlyFL) (Staphylococcus pseudintermedius phage φ2638A) (UniProt Q4ZD58)
T1 sequence: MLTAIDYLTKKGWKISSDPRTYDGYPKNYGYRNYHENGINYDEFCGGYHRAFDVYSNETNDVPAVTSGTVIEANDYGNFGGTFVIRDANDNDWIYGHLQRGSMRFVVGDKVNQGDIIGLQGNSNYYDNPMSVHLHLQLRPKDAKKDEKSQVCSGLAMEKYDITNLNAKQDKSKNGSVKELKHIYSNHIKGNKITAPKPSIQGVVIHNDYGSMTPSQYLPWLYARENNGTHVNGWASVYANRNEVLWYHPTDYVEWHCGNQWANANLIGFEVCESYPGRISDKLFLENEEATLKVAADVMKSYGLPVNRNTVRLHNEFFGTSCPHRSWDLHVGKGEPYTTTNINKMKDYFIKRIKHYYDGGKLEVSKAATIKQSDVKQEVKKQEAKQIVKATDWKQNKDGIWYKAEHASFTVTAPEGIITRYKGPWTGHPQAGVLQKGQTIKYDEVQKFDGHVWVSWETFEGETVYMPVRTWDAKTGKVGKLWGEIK

T2: Ply2638A central amidase domain (Staphylococcus pseudintermedius phage φ2638A) (UniProt Q4ZD58)
T2 sequence: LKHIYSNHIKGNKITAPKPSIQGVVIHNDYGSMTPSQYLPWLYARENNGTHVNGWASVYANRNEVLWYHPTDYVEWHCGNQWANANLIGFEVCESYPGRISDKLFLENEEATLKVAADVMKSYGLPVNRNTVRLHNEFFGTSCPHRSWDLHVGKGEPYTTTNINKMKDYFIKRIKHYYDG


Experiments:
[1] = target: T1, Ply2638A full-length endolysin isoform (PlyFL) (Staphylococcus pseudintermedius phage φ2638A); assay: SPR; Biacore X, PlyFL immobilised by amine coupling on a CMD500L chip; analytes at 750 nM, 1 µM, 2.5 µM and 5 µM in PBS pH 7.4, 10 µl/min; no KD could be determined; both purified
[2] = target: T2, Ply2638A central amidase domain (Staphylococcus pseudintermedius phage φ2638A); assay: SPR; Biacore X, amidase domain immobilised by amine coupling on a CMD500L chip; all analytes at 1 µM, amidase analyte at four concentrations, PBS pH 7.4; no KD could be determined; both purified
[3] = target: T2, Ply2638A central amidase domain (Staphylococcus pseudintermedius phage φ2638A); assay: as above; remark: listed apart in the source

Row | binding [1] | binding [2] | binding [3] | Molecule
1 | no binding (tested: 5 µM) | no binding (tested: 1 µM) |  | Ply2638A M23 peptidase domain (from UniProt Q4ZD58 1-174) (domain or fragment)
2 | no binding (tested: 5 µM) | no binding (tested: 1 µM) |  | Ply2638A SH3b cell wall binding domain (from UniProt Q4ZD58 393-486) (domain or fragment)
3 | binds |  | binds | Ply2638A central amidase domain (domain or fragment, UniProt Q4ZD58 180-359) LKHIYSNHIKGNKITAPKPSIQGVVIHNDYGSMTPSQYLPWLYARENNGTHVNGWASVYANRNEVLWYHPTDYVEWHCGNQWANANLIGFEVCESYPGRISDKLFLENEEATLKVAADVMKSYGLPVNRNTVRLHNEFFGTSCPHRSWDLHVGKGEPYTTTNINKMKDYFIKRIKHYYDG
4 |  |  | binds | Ply2638A full-length endolysin isoform (PlyFL) (enzyme, UniProt Q4ZD58 1-486) MLTAIDYLTKKGWKISSDPRTYDGYPKNYGYRNYHENGINYDEFCGGYHRAFDVYSNETNDVPAVTSGTVIEANDYGNFGGTFVIRDANDNDWIYGHLQRGSMRFVVGDKVNQGDIIGLQGNSNYYDNPMSVHLHLQLRPKDAKKDEKSQVCSGLAMEKYDITNLNAKQDKSKNGSVKELKHIYSNHIKGNKITAPKPSIQGVVIHNDYGSMTPSQYLPWLYARENNGTHVNGWASVYANRNEVLWYHPTDYVEWHCGNQWANANLIGFEVCESYPGRISDKLFLENEEATLKVAADVMKSYGLPVNRNTVRLHNEFFGTSCPHRSWDLHVGKGEPYTTTNINKMKDYFIKRIKHYYDGGKLEVSKAATIKQSDVKQEVKKQEAKQIVKATDWKQNKDGIWYKAEHASFTVTAPEGIITRYKGPWTGHPQAGVLQKGQTIKYDEVQKFDGHVWVSWETFEGETVYMPVRTWDAKTGKVGKLWGEIK
